No constants are given. Whether binding was seen depends on the method and setting. In cells and extracts the contact can be indirect. A result given as binding can be weak or reduced; the word gives no strength.

The chains behind the UniProt entries cited, without tags or fusion partners. Where a name states a change or a piece, a line headed by the entry shows the natural chain unless it says otherwise.
UniProt Q12834: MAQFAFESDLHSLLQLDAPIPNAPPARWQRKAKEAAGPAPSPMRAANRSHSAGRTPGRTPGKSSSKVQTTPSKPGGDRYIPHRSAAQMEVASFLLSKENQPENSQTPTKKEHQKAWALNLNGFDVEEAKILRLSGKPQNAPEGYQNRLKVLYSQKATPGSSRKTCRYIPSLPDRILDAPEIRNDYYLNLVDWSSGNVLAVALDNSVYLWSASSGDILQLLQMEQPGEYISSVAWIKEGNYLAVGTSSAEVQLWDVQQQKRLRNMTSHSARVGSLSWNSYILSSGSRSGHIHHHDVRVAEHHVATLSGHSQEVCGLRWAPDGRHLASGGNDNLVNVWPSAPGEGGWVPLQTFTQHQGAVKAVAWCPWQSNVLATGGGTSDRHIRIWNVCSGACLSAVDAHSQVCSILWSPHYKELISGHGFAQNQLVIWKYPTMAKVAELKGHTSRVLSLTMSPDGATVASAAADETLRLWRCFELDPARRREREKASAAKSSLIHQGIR
UniProt Q9UM11: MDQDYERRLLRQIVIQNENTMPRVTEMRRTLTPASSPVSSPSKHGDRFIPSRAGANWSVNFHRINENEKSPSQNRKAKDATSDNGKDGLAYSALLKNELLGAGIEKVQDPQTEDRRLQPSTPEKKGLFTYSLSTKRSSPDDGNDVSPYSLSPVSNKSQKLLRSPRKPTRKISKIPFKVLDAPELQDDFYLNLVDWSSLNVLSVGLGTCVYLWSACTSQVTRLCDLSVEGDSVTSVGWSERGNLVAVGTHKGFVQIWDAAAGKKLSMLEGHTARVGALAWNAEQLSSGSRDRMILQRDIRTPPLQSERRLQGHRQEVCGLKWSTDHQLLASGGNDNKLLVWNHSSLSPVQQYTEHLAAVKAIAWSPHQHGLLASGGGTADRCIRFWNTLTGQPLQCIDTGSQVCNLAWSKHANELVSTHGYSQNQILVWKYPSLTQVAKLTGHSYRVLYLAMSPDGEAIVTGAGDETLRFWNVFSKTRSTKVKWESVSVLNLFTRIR
UniProt Q9NPI1: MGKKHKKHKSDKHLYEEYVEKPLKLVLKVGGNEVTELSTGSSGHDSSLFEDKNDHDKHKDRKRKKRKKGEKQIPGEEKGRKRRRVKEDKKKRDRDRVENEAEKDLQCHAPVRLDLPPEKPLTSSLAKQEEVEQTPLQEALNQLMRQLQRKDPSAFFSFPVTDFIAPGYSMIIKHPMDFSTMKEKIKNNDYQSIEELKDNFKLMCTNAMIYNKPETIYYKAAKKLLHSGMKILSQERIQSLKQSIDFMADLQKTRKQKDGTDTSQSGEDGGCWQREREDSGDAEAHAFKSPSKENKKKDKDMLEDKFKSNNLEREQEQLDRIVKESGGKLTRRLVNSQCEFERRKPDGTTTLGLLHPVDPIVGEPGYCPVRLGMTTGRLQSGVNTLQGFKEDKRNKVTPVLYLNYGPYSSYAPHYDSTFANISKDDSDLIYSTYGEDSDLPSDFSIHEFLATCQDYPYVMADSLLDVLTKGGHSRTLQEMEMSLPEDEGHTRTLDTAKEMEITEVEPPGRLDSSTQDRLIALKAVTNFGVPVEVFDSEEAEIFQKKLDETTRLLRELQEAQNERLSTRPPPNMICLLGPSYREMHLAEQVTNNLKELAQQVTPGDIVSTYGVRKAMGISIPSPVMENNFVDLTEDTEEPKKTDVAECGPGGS

Experimental findings from article PMC4102794 are described below.

One assay deals with HA-tagged Cdc20 (human) (UniProt Q12834). Kind of assay: co-IP; deletion constructs of BRD7, Cdh1 or Cdc20 to map the binding domains; tags and cells not given.
In another assay the target is HA-tagged Cdh1 (human) (UniProt Q9UM11). The assay is described as above.

Regarding “BRD7 mutant lacking the bromodomain (from UniProt Q9NPI1)”, the binding entry with HA-tagged Cdc20 (human) and with HA-tagged Cdh1 (human) was “binds” in each case.
